Our source for the binding values is publication PMC10474292.

Chains of the proteins cited; added tags and fusions are not shown. Lines headed by an entry give the natural chain unless they say otherwise; changes in a name come on top.
UniProt B2RWS6: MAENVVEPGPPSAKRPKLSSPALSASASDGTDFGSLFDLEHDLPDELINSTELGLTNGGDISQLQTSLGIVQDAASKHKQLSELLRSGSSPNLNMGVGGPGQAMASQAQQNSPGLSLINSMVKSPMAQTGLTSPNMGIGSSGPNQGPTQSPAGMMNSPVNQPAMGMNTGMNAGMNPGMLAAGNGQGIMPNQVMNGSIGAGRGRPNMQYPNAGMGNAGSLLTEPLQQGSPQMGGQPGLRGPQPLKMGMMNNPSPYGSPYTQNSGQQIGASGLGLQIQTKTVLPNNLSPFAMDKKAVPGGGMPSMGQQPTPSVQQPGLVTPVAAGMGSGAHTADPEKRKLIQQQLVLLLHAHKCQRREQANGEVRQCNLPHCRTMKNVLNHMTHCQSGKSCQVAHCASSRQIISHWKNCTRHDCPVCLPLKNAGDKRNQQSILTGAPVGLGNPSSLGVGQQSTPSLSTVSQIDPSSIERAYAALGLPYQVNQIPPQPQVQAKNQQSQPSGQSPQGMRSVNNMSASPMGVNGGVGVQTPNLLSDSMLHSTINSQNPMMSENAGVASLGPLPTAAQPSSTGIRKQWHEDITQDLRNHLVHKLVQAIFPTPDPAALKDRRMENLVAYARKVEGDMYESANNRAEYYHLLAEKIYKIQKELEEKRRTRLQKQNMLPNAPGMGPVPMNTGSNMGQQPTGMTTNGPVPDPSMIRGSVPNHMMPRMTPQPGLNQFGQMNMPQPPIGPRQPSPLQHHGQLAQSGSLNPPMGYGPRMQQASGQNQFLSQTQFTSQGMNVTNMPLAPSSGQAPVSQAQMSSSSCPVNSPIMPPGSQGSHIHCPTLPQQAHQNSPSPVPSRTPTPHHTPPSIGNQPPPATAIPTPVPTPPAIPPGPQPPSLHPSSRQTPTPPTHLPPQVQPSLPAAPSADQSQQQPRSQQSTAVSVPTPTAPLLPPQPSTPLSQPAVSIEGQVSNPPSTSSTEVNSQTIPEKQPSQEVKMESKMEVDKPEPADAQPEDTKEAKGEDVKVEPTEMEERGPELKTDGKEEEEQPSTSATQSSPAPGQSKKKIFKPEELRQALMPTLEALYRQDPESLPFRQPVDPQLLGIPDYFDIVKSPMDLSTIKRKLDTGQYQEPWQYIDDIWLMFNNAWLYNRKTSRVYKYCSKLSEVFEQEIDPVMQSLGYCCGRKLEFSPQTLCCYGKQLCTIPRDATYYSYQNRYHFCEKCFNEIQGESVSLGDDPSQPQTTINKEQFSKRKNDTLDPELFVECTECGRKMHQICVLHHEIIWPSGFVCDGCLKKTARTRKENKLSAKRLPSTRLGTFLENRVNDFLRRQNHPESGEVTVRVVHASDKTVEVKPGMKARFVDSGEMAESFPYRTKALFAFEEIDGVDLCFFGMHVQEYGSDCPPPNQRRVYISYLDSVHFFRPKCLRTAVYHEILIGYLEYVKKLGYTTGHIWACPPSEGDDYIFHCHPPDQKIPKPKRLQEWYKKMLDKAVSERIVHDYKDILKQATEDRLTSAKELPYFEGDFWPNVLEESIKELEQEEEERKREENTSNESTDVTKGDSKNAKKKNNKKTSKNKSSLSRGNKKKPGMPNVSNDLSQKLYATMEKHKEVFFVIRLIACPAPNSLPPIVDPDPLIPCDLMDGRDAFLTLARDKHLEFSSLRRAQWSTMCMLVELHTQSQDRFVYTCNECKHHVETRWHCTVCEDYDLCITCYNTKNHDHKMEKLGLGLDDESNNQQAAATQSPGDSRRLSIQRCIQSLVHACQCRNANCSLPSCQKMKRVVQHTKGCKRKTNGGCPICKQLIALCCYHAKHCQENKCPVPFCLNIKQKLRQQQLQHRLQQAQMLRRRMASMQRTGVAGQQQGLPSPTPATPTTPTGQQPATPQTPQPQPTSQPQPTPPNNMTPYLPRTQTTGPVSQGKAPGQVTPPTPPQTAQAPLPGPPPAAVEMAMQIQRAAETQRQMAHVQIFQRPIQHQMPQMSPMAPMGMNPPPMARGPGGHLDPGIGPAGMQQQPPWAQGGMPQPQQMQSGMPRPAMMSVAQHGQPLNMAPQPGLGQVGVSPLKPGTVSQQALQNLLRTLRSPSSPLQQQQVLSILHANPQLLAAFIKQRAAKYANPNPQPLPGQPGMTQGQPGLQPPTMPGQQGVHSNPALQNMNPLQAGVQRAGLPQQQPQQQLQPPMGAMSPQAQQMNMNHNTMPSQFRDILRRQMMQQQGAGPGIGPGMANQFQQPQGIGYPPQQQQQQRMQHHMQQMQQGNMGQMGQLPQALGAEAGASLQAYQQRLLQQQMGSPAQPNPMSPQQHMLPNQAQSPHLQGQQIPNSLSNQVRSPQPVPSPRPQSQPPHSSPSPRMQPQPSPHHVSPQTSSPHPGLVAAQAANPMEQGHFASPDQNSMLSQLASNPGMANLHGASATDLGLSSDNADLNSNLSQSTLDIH
UniProt Q09472: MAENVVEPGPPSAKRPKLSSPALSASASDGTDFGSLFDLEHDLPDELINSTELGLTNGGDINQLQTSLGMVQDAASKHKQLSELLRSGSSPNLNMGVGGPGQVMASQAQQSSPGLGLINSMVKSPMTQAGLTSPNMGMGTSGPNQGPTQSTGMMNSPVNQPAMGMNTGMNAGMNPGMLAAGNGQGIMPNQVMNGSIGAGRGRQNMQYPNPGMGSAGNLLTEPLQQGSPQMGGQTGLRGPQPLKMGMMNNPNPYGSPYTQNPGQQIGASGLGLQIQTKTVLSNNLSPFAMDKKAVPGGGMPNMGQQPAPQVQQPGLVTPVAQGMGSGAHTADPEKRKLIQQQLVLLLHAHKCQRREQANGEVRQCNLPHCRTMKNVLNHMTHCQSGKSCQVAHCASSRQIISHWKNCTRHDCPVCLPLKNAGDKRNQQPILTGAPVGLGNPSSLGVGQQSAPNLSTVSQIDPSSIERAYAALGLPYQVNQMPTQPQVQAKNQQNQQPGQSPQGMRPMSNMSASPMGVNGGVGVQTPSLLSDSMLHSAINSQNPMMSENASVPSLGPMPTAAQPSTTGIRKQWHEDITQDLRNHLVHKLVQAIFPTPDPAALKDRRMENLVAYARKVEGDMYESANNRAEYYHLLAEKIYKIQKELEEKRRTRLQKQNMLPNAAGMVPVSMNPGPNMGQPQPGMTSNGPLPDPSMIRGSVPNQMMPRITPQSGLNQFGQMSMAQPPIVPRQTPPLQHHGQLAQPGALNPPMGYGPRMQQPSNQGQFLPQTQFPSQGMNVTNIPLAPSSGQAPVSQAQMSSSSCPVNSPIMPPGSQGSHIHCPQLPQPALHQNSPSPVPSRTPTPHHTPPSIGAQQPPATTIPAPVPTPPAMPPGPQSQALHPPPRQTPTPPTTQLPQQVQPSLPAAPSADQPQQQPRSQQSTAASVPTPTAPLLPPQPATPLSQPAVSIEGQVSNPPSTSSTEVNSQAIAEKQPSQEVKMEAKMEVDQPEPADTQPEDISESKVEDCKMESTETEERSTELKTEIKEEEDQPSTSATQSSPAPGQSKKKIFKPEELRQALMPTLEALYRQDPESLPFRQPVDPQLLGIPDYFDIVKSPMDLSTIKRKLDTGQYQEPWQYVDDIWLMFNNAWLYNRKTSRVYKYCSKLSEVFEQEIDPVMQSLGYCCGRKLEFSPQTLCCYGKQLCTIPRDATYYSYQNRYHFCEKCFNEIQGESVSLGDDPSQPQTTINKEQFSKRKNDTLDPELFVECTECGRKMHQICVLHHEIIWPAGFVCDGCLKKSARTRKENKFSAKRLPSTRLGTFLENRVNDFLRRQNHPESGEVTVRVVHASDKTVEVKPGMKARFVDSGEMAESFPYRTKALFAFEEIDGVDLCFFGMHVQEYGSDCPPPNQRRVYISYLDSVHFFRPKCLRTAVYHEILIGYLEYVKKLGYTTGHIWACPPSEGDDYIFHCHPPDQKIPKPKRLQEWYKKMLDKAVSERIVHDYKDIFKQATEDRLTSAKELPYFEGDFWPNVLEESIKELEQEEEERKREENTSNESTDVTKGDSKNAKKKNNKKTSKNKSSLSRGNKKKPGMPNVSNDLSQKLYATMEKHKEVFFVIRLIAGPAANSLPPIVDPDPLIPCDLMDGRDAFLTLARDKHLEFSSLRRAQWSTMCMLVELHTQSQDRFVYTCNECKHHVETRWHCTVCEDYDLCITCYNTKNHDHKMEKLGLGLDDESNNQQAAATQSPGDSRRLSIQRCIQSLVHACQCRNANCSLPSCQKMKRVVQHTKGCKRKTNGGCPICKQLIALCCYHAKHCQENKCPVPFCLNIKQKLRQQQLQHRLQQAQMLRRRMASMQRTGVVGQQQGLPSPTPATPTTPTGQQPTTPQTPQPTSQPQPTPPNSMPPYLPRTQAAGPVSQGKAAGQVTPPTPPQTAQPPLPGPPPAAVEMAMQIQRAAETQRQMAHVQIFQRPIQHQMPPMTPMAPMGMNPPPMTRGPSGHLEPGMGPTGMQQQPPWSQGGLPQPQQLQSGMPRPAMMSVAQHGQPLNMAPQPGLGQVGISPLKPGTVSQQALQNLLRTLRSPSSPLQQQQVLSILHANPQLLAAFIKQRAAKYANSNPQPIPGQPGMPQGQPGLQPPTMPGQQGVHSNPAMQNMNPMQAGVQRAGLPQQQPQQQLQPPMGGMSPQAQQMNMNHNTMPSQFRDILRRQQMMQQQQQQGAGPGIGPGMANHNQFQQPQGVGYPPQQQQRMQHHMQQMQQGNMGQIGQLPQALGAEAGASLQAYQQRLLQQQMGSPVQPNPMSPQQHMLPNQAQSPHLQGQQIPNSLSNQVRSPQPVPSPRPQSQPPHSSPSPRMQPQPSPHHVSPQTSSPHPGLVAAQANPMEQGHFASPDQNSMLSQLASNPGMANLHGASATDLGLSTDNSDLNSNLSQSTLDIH
UniProt P28033: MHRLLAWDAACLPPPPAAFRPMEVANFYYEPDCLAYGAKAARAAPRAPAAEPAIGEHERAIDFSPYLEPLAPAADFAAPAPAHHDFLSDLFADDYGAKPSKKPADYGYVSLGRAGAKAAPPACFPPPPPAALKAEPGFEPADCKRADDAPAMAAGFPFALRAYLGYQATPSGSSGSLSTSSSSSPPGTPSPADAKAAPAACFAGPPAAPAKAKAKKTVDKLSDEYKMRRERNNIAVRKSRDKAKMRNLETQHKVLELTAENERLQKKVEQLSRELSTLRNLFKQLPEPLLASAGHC

Results are given in words; binding and its absence hold for the method and conditions named. Binding seen in cells or lysates may run through a third protein. Some entries that bind do so weakly or less than the wild type.

Assay [1] concerns the target E1A binding protein p300 (p300), in mouse lung samples (mouse (endogenous in mouse lung)) (UniProt B2RWS6). The assay can be described thus: co-IP; BLM-treated mouse lung samples; which protein was precipitated is not told in the text shown.
For assay [2], the target named is p300, transfected construct in RLE-6TN cells (UniProt Q09472). The assay can be described thus: co-IP; RLE-6TN cells transfected with the indicated constructs; immunoprecipitation with FLAG or HA antibodies.

Regarding “CCAAT/enhancer-binding protein beta (C/EBPβ), in mouse lung samples (from UniProt P28033 1-296)”, the binding result in assay [1] was “binds”.

B1: ubiquitin C-terminal hydrolase L3 (UCHL3), transfected construct in RLE-6TN cells (enzyme, UniProt P15374 1-230)
chain: MEGQRWLPLEANPEVTNQFLKQLGLHPNWQFVDVYGMDPELLSMVPRPVCAVLLLFPITEKYEVFRTEEEEKIKSQGQDVTSSVYFMKQTISNACGTIGLIHAIANNKDKMHFESGSTLKKFLEESVSMSPEERARYLENYDAIRVTHETSAHEGQTEAPSIDEKVDLHFIALVHVDGHLYELDGRKPFPINHGETSDETLLEDAIEVCKKFMERDPDELRFNAIALSAA
On to B1, for which, in assay [2], the binding result is reported as “binds”.
